# Out of some 310,000 compounds screened, about 17,000 (5.5%) were called active. The shares of active, inactive and inconclusive entries below differ from those in the screen. Calls follow the shape of the dose curve; as a rule, active = well fitted inhibition curve with a large enough effect; inconclusive = small, poorly fitted or top-dose-only effect, or effect the other way; inactive = no such curve, though single readings can be large or run the other way. Where the call is inconclusive, the potency comes from a doubtful curve fit.
# Protein sequences, listed by entry. Tags and fused reporters are not part of them. Lines headed by an entry give the natural chain unless they say otherwise; changes in a name come on top.
# UniProt P51450: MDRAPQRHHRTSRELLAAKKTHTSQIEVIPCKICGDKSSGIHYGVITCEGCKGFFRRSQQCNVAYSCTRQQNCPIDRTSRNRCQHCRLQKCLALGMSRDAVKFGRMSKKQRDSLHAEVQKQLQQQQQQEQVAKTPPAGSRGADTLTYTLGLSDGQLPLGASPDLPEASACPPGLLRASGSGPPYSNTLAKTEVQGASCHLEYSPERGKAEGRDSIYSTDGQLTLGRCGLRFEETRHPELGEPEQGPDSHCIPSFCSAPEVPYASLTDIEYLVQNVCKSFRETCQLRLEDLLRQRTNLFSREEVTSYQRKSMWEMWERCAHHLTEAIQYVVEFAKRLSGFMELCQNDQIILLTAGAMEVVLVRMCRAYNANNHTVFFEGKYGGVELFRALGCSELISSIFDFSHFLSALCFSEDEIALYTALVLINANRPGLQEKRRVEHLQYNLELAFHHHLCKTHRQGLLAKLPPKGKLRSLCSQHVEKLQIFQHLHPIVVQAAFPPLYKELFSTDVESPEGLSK
# Target: Nuclear receptor ROR-gamma (Mus musculus) (UniProt P51450)
# Assay: qHTS for inhibitors of ROR gamma transcriptional activity; also: nearly all actives have a fitted effect of over 60% in size
# Conditions: Drosophila S2 Gal4-RORgamma UAS-luciferase reporter, 20 h; activity change, negative = inhibition: at 53.6 µM (top of the series)
# How it was run: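 Drosophila Schneider cells stably carrying a metallothionein-driven Gal4 DBD–ROR gamma fusion and a UAS-Photinus luciferase reporter were exposed to compound for 1 hr, then induced with copper sulfate (700 uM final) for 20 hr at ambient temperature before luminescence reading.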
# % is scaled to controls: 0 for no effect and ±100 for the full control effect; potency is read from the fitted curve at half-maximal effect.
SMILES,Potency,"activity change, negative = inhibition"
CO/N=C1\CCn2c1c(C)c1ccccc12,inactive,–
S=C(Nc1ccccc1)Nc1ccccc1-n1cccc1,active: 4.47 µM,–
COc1ccc(N2CCN(C(=O)c3cccnc3SCc3cccc(Br)c3)CC2)cc1,"inconclusive: 10 µM [activator, partial curve]",–
COc1ccc(C2CC(=O)C=C(NCCC(C)C)C2)cc1 (configuration not stated),"inconclusive: 31.6 µM [activator, single point]",–
OCCCc1nc2ccccc2n1Cc1ccccc1,inactive,–
C=CCn1c(N)cc(=O)nc1SC(C)C(=O)Nc1cccc2ccccc12 (configuration not stated),"inconclusive: 5.62 µM [activator, single point]",–
Cc1csc(N/N=C/c2c(F)cccc2Cl)n1,"inconclusive: 35.5 µM [inhibitor, single point]",–
CC(C)(C)OC(=O)NCc1ccc(CNC(=O)c2[nH]cnc2C(=O)N[C@@H](Cc2ccccc2)C(=O)OCc2ccccc2)cc1,active: 11.2 µM,–
Cc1ccc(C(=O)N/C(=C\c2ccco2)C(=O)NCCc2c[nH]c3ccccc23)cc1,"inconclusive: 31.6 µM [activator, single point]",–
Cc1ccccc1NC(=O)N1CCCC1C(=O)NCc1ccccc1 (configuration not stated),inactive,–
CC12CCC=CC1C(c1cccc([N+](=O)[O-])c1)N(Cc1ccccc1)C2=O (configuration not stated),"inconclusive: 14.1 µM [activator, partial curve, poor fit]",–
COc1ccc(S(=O)(=O)N2CCOC2CNC(=O)C(=O)NCCc2ccc(OC)c(OC)c2)cc1 (configuration not stated),"inconclusive: 12.6 µM [activator, partial curve]",–
COc1ccc(Nc2cc(C)nc(-n3nc(C)cc3C)n2)cc1,active: 0.501 µM,–
Cc1cccc(C)c1OCC(=O)NNC(=S)NC(=O)C1CC1,active: 17.8 µM,–
COc1ccc(-n2c(-c3ccc(Br)cc3)c[n+]3c2CCCCC3)cc1,"inconclusive: 35.5 µM [inhibitor, single point]",–
COc1ccc(C(=O)N=c2c(C#N)cc3c(=O)n4cccc(C)c4nc3n2Cc2ccco2)cc1,inactive,–
CC(C)COc1ccc(-c2nnn(CC(=O)N3CCCC3)n2)cc1,"inconclusive: 20 µM [activator, single point]",–
CCCCC(=O)Nc1nnc(-c2ccc(OC)cc2)s1,"inconclusive: 7.94 µM [inhibitor, partial curve, poor fit]",–
Cc1ccccc1CN1C(=O)c2ccccc2Sc2ccc(C(=O)NCCCN3CCOCC3)cc21,"inconclusive: 35.5 µM [inhibitor, single point]",–
O=C(COc1ccc(/C=N/NS(=O)(=O)c2ccccc2)cc1)Nc1cccc(Cl)c1,"inconclusive: 11.2 µM [activator, single point]",–
CCCCNC(=O)c1ccc(CS(=O)(=O)Cc2ccccc2F)o1,"inconclusive: 14.1 µM [activator, single point]",–
COc1cc(NS(=O)(=O)c2ccc(Nc3nc(-c4ccccc4)cs3)cc2)nc(OC)n1,"inconclusive: 8.91 µM [activator, partial curve, poor fit]",–
CN(C)/C=N/C(=S)Nc1ccc(F)cc1,active: 11.2 µM,–
CC(C)(C)C(=O)Nc1nnc(CSCc2ccccc2F)s1,"inconclusive: 15.8 µM [inhibitor, single point]",–

# Among those listed so far, these contain nitrogen in an aromatic ring:
SMILES,Potency,"activity change, negative = inhibition"
CO/N=C1\CCn2c1c(C)c1ccccc12,inactive,–
S=C(Nc1ccccc1)Nc1ccccc1-n1cccc1,active: 4.47 µM,–
COc1ccc(N2CCN(C(=O)c3cccnc3SCc3cccc(Br)c3)CC2)cc1,"inconclusive: 10 µM [activator, partial curve]",–
OCCCc1nc2ccccc2n1Cc1ccccc1,inactive,–
C=CCn1c(N)cc(=O)nc1SC(C)C(=O)Nc1cccc2ccccc12 (configuration not stated),"inconclusive: 5.62 µM [activator, single point]",–
Cc1csc(N/N=C/c2c(F)cccc2Cl)n1,"inconclusive: 35.5 µM [inhibitor, single point]",–
CC(C)(C)OC(=O)NCc1ccc(CNC(=O)c2[nH]cnc2C(=O)N[C@@H](Cc2ccccc2)C(=O)OCc2ccccc2)cc1,active: 11.2 µM,–
Cc1ccc(C(=O)N/C(=C\c2ccco2)C(=O)NCCc2c[nH]c3ccccc23)cc1,"inconclusive: 31.6 µM [activator, single point]",–
COc1ccc(Nc2cc(C)nc(-n3nc(C)cc3C)n2)cc1,active: 0.501 µM,–
COc1ccc(-n2c(-c3ccc(Br)cc3)c[n+]3c2CCCCC3)cc1,"inconclusive: 35.5 µM [inhibitor, single point]",–
COc1ccc(C(=O)N=c2c(C#N)cc3c(=O)n4cccc(C)c4nc3n2Cc2ccco2)cc1,inactive,–
CC(C)COc1ccc(-c2nnn(CC(=O)N3CCCC3)n2)cc1,"inconclusive: 20 µM [activator, single point]",–
CCCCC(=O)Nc1nnc(-c2ccc(OC)cc2)s1,"inconclusive: 7.94 µM [inhibitor, partial curve, poor fit]",–
COc1cc(NS(=O)(=O)c2ccc(Nc3nc(-c4ccccc4)cs3)cc2)nc(OC)n1,"inconclusive: 8.91 µM [activator, partial curve, poor fit]",–
CC(C)(C)C(=O)Nc1nnc(CSCc2ccccc2F)s1,"inconclusive: 15.8 µM [inhibitor, single point]",–

# Gathered by group: the entries above with an NH in an aromatic ring.
SMILES,Potency,"activity change, negative = inhibition"
CC(C)(C)OC(=O)NCc1ccc(CNC(=O)c2[nH]cnc2C(=O)N[C@@H](Cc2ccccc2)C(=O)OCc2ccccc2)cc1,active: 11.2 µM,–
Cc1ccc(C(=O)N/C(=C\c2ccco2)C(=O)NCCc2c[nH]c3ccccc23)cc1,"inconclusive: 31.6 µM [activator, single point]",–

# The list goes on:

SMILES,Potency,"activity change, negative = inhibition"
Cc1ccc(C(OCC(C)(C)C[N+](C)(C)C)c2ccccc2)cc1 (configuration not stated),inactive,–
CCCn1nnnc1NC(=O)c1ccc2ccccc2c1,active: 1.58 µM,–
Cc1ccc(OCCCCCN2CCOCC2)cc1,"inconclusive: 35.5 µM [inhibitor, single point]",–
O=C(CSc1nc2ccccc2c(=O)n1-c1ccc(F)cc1F)c1c[nH]c2ccccc12,"inconclusive: 10 µM [activator, partial curve]",–
Cc1ccc(/C=c2\s/c(=C(/C#N)C(=O)N3CCCC3)n(Cc3ccco3)c2=O)s1,"inconclusive: 35.5 µM [inhibitor, single point]",–
O=C(c1cc(N2C(=O)C3C4CCC(C4)C3C2=O)ccc1Cl)N1CCN(c2ccc(F)cc2)CC1 (configuration not stated),"inconclusive: 22.4 µM [activator, single point]",–
O=C(NCc1ccccc1C(F)(F)F)C1CCC(=O)N(C2CCCCCC2)C1 (configuration not stated),"inconclusive: 10 µM [activator, partial curve]",–
Cc1cccc2cc3c(NC(=O)C(C)C)nn(C)c3nc12,inactive,–
CCCN1CCN(C(=S)Nc2ccccc2C(F)(F)F)CC1,"inconclusive: 8.91 µM [inhibitor, partial curve, poor fit]",–
COc1cc(/C=N/NC(=O)C(=O)NCc2ccco2)ccc1O,"inconclusive: 10 µM [activator, partial curve]",–
Cn1c2ccc(F)cc2c2ncn(Cc3ccco3)c(=O)c21,"inconclusive: 6.31 µM [inhibitor, single point]",–
Cc1ccc(Cn2c(Cc3ccccc3)nc3ccccc32)cc1,active: 8.91 µM,–
Cc1c(C(=O)NCC2CCCO2)sc2nc(-c3ccc(F)cc3)cn12 (configuration not stated),"inconclusive: 3.55 µM [activator, partial curve]",–
Cc1[nH]n(C(N)=S)c(=O)c1N=Nc1ccc([N+](=O)[O-])cc1Cl,active: 0.708 µM,–
Cc1noc(C)c1C(=O)Nc1nccs1,inactive,–
O=C(NC(=O)c1ccccc1)Nc1ccccn1,active: 0.501 µM,–
CCOC(=O)C1=C(C)NC(C)=C(C(=O)OCC)C1c1ccc(OC)cc1,inactive,–
O=C(Nc1cccc(-c2nc3ccccc3[nH]2)c1)c1cccc(NC(=O)c2ccco2)c1,"inconclusive: 35.5 µM [inhibitor, single point]",–
COc1ccc(C(C)=O)cc1COC(=O)c1cccnc1SC,inactive,–
C/C=C(\C)C(=O)NCCN1C2=NC[C@H](Cc3ccc(O)cc3)N2C[C@@H]1Cc1ccc(OC)cc1,"inconclusive: 35.5 µM [activator, single point]",–
O=C(Nc1nnc(-c2ccc(F)cc2)o1)c1ccc(S(=O)(=O)N2CCOCC2)cc1,active: 0.631 µM,–
CC(C)CN(CC(C)C)CC(O)COc1ccccc1Br (configuration not stated),inactive,–
Cc1cccc(NC(=S)Nn2cnnc2)c1C,"inconclusive: 11.2 µM [inhibitor, single point]",–
CCCOc1ccc(-c2c(=O)n(O)c3ccccc3[n+]2[O-])cc1,"inconclusive: 22.4 µM [inhibitor, single point]",–

SMILES,Potency,"activity change, negative = inhibition"
CCCCc1ccc(NC(=O)c2ccc(NS(C)(=O)=O)cc2)cc1,inactive,–
CN(CCOc1ccccc1)S(=O)(=O)c1ccc2oc3ccccc3c2c1,"inconclusive: 35.5 µM [inhibitor, single point]",–
CC1=CC(C)(C)N2C(=O)C3(SCC(=O)N3c3ccc(F)cc3)c3cc(C)cc1c32 (configuration not stated),active: 15.8 µM,–
O=C(ONC1=NCCCCC1)c1c(F)cccc1F,"inconclusive: 12.6 µM [inhibitor, partial curve, poor fit]",–
O=C(Cn1cnc2c(cnn2-c2ccc(F)cc2)c1=O)N1CCN(c2ccccc2)CC1,"inconclusive: 31.6 µM [inhibitor, single point]",–
COc1ccc(N(CC(=O)Nc2ccc(OC)c(Cl)c2)S(=O)(=O)c2c(C)noc2C)cc1,"inconclusive: 12.6 µM [activator, partial curve]",–
COc1ccccc1/C=C/C=N/n1c(C2CCCCC2)n[nH]c1=S,active: 1.41 µM,–
Cc1sc2ncnc(N3CCC(C)CC3)c2c1C,"inconclusive: 0.562 µM [activator, single point]",–
CCOc1ccc(C(=O)Nc2cc(-c3nc4ccccc4[nH]3)ccc2Cl)cc1[N+](=O)[O-],inactive,–
COc1ccc(OC)c(S(=O)(=O)Nc2ccccc2C(=O)O)c1,"inconclusive: 0.005 µM [inhibitor, full curve, poor fit]",–
O=S(=O)(c1ccccc1)c1nc(-c2ccccc2)oc1NCCCN1CCOCC1,"inconclusive: 20 µM [inhibitor, single point]",–
CC(=O)c1cccc(NC(=O)c2ccc(N(Cc3ccccc3C)S(C)(=O)=O)cc2)c1,"inconclusive: 12.6 µM [activator, single point]",–
Oc1c(C(Nc2ccccn2)c2ccccn2)ccc2cccnc12 (configuration not stated),active: 1.12 µM,–
CCn1cc(/C=N\NC(=O)c2ccc3c(c2)c(C)c(C)n3Cc2ccccc2)c(C)n1,"inconclusive: 22.4 µM [inhibitor, single point]",–
CC(=O)OC[C@@H]1O[C@H](C/C=N\OC[C@@H](C)[C@H](OCc2ccccc2)C(C)C)C=C[C@@H]1OC(C)=O,–,inactive: -6.4% [at 10 µM]
C/C(=C1/C(=O)N(c2ccc([N+](=O)[O-])cc2)N=C1c1ccccc1)N(C)C,"inconclusive: 35.5 µM [inhibitor, single point]",–
CCCNC(=S)N(Cc1ccccc1)Cc1nc2ccccc2c(=O)[nH]1,active: 12.6 µM,–
COc1ccccc1C(=O)N/C(=C\c1cn(S(=O)(=O)N(C)C)c2ccccc12)C(=O)NCCCN1CCOCC1,"inconclusive: 35.5 µM [inhibitor, single point]",–
O=C1N/C(=N\N=C\c2ccccn2)SC1Cc1cccc(SC(F)F)c1 (configuration not stated),active: 1.78 µM,–
CCCCNC(=O)C1CCC(CNS(=O)(=O)c2cccc3nsnc23)CC1 (configuration not stated),inactive,–
COC(=O)c1ccc(C(=O)OC)c(NC(=S)N2CCC(C)CC2)c1,inactive,–
CCNc1nc(NC(C)C)nc(SCCOc2ccc(C)cc2)n1,inactive,–
CCc1cc2c(=O)c(-c3cscn3)coc2cc1O,"inconclusive: 15.8 µM [activator, partial curve, poor fit]",–
CCC(C(=O)OCC(=O)Nc1cc(Cl)cc(Cl)c1)c1ccccc1 (configuration not stated),"inconclusive: 28.2 µM [activator, single point]",–

# From PubChem BioAssay AID2551 (National Center for Advancing Translational Sciences (NCATS), 2010)
